Results are given in words; binding and its absence hold for the method and conditions named. A result given as binding can be weak or reduced; the word gives no strength. Sequences can lack the tags named with a protein.
Experiments:
[1] = biological target: binary complex of FGFR1c ligand-binding domain with murine αKlotho ectodomain (murine; human); assay: SPR competition; FGF23 in solution mixed with a fixed concentration of αKlotho-FGFR1c complex, passed over immobilised FGF23
[2] = biological target: binary complex of FGFR1c ligand-binding domain with murine αKlotho ectodomain (murine; human); assay: SPR; αKlotho-FGFR1c complex (mixed 1:10 with FGF2^ΔHBScore-FGF21^C-tail or FGF21, which did not inhibit) passed over immobilised FGF23
[3] = biological target: binary complex of FGFR1c ligand-binding domain with murine αKlotho ectodomain (murine; human); assay: SPR competition; increasing concentrations of competitor mixed with a fixed concentration of αKlotho-FGFR1c complex, passed over an FGF23 chip
[4] = biological target: binary complex of FGFR1c ligand-binding domain with murine αKlotho ectodomain (murine; human); assay: SPR; αKlotho-FGFR1c complex passed over immobilised FGF23
[5] = biological target: binary complex of FGFR1c ligand-binding domain with murine αKlotho ectodomain (murine; human); assay: SPR; increasing concentrations of αKlotho-FGFR1c complex passed over immobilised FGF23

binding [1]: binds | binding [2]: binds | binding [3]: binds | binding [4]: binds | binding [5]: binds
B1: human FGF23 (Y25 to I251), N-terminally hexahistidine-tagged mature form, with R176Q/R179Q (ligand, not shown: small tags and cut ends)
chain: YPNASPLLGSSWGGLIHLYTATARNSYHLQIHKNGHVDGAPHQTIYSALMIRSEDAGFVVITGVMSRRYLCMDFRGNIFGSHYFDPENCRFQHQTLENGYDVYHSPQYHFLVSLGRAKRAFLPGMNPPPYSQFLSRRNEIPLIHFNTPIPRQHTQSAEDDSERDPLNVLKPRARMTPAPASCSQELPSAEDNSPMASDPLGVVRGGRVNTHAGGTGPEGCRPFAKFI

Reference: US20130331317A1
